Here are results for 1 substance from PMC5610175, “The Kinetochore Receptor for the Cohesin Loading Complex” (Cell, 2017).

Protein sequences, listed by entry. Tags and fused reporters are not part of them. Lines headed by an entry give the natural chain unless they say otherwise; changes in a name come on top.
UniProt Q12748: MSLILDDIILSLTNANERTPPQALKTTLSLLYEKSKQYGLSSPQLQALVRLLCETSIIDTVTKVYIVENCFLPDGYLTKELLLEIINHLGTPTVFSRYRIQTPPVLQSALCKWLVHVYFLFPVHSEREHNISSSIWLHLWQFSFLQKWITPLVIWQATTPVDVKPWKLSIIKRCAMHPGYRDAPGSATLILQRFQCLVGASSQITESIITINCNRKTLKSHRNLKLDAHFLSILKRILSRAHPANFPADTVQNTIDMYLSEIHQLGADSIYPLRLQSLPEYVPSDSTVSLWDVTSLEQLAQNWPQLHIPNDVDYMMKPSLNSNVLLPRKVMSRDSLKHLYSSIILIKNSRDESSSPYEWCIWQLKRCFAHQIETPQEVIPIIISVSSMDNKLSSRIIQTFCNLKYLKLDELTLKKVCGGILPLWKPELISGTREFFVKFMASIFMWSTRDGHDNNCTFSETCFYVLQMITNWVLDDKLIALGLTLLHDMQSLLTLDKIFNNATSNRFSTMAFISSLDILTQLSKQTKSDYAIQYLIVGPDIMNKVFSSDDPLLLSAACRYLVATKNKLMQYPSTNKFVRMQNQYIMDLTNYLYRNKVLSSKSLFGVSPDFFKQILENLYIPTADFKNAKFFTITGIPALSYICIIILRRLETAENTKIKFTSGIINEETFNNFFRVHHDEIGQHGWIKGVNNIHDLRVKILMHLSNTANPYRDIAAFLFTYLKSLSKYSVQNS
UniProt Q12262: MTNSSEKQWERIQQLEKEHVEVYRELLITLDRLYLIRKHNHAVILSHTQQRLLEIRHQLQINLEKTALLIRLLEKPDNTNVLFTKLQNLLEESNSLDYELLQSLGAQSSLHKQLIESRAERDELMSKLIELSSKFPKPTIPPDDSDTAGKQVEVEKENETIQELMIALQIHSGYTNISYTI
UniProt P47167: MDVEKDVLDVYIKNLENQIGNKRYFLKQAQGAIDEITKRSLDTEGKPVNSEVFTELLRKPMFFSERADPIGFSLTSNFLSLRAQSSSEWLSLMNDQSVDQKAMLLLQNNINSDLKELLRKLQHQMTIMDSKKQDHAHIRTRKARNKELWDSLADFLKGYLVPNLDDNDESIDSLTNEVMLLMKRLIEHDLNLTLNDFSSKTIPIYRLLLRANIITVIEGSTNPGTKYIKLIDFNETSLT
UniProt Q02732: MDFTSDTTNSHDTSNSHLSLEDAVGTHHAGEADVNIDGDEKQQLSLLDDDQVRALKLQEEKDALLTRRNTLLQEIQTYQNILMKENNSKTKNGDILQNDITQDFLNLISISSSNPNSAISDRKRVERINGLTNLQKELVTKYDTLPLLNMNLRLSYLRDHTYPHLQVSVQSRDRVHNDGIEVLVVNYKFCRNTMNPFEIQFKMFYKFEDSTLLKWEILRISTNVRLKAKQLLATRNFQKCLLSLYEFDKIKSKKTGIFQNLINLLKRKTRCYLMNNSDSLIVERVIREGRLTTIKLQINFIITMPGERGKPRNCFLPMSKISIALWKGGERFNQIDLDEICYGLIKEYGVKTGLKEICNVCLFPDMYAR
UniProt Q06675: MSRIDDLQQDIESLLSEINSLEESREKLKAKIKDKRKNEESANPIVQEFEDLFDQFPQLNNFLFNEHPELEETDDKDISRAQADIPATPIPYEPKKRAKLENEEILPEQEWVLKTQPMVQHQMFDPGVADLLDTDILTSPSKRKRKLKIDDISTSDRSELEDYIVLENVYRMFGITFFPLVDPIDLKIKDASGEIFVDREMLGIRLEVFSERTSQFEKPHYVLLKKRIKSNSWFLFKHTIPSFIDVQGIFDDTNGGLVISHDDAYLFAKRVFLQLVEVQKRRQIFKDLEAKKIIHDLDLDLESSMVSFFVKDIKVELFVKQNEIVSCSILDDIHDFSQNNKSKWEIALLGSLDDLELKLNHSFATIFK
UniProt P06243: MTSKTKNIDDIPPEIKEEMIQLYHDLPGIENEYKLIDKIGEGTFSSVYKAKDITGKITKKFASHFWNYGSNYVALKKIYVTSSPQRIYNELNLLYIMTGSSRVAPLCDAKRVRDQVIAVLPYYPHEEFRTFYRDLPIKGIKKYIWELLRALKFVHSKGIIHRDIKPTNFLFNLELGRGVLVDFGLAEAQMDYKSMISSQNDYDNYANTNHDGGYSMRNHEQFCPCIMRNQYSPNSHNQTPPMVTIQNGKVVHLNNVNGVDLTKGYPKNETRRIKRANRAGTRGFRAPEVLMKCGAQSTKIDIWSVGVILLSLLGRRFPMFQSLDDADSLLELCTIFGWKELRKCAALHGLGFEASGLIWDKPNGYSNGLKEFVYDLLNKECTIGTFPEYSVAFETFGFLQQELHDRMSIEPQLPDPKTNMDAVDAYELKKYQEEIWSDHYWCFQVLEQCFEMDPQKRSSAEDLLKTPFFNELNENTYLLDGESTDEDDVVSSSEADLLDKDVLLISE

The target of test [1] is Ctf3 complex, trimeric assembly of Ctf3, Mcm16 and Mcm22 (all 6His-tagged) (S. cerevisiae) (UniProt Q12748+Q12262+P47167). Description: pull-down; 35S-labelled in vitro translated DDK (10 μl translation mix) with equal molar amounts of purified 6His-tagged Ctf19 complex proteins; Ni-NTA beads; 30mM Tris pH 8, 30mM imidazole, 150mM NaCl, 0.05% NP-40 substitute, 10% glycerol, 2mM β-mercaptoethanol; on ice; SDS-PAGE and …; only the target purified.

The target of test [2] is Ctf19-Mcm21 dimer, unmodified recombinant (Ctf19; 6His-Mcm21) (S. cerevisiae) (UniProt Q02732+Q06675). The test is described as above.

Results are given in words; binding and its absence hold for the method and conditions named. In cells and extracts the contact can be indirect. Some binding calls cover weakened binding; strength is not graded here.

As for “Dbf4-dependent kinase (DDK), Dbf4 and Cdc7 translated in vitro together (from UniProt P06243 1-507; P32325 1-704) (complex)”, the binding result in test [1] and in test [2] was “binds” each time.
